In the supplement of paper PMC4862054:
Small differences around the control level are noise.

Columns and labels:
Experiment in all cases: normalised response (% of control), CellTox Green; higher = less cell death (100 = DMSO, 0 = benzethonium chloride kill control)
Conditions in all cases: incubation time: 72 h
CAL-51 = tested on: CAL-51
Description: (§1)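 DSRT, 72 h incubation, CellTox Green / CellTiter-Glo readout. Signal is normalised to DMSO and benzethonium chloride controls. Value is the normalised response at dose 2.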

Hs578T = tested on: Hs578T
Description: as §1

MFM-223 = tested on: MFM-223
Description: as §1

CAL-85-1 = tested on: CAL-85-1
Description: as §1

HCC1937 = tested on: HCC1937
Description: as §1

CAL-148 = tested on: CAL-148
Description: as §1

CAL-120 = tested on: CAL-120
Description: as §1

HCC1143 = tested on: HCC1143
Description: as §1

HDQ-P1 = tested on: HDQ-P1
Description: as §1

MDA-MB-436 = tested on: MDA-MB-436
Description: as §1

MDA-MB-231 = tested on: MDA-MB-231
Description: as §1

DU-4475 = tested on: DU-4475
Description: as §1

BT-474 = tested on: BT-474
Description: as §1

BT-549 = tested on: BT-549
Description: as §1

MCF-10A = tested on: MCF-10A
Description: as §1

MDA-MB-468 = tested on: MDA-MB-468
Description: as §1

HCC1599 = tested on: HCC1599
Description: as §1

MDA-MB-453 = tested on: MDA-MB-453
Description: as §1

Compound | normalised response (CAL-51) [%] | normalised response (Hs578T) [%] | normalised response (MFM-223) [%] | normalised response (CAL-85-1) [%] | normalised response (HCC1937) [%] | normalised response (CAL-148) [%] | normalised response (CAL-120) [%] | normalised response (HCC1143) [%] | normalised response (HDQ-P1) [%] | normalised response (MDA-MB-436) [%] | normalised response (MDA-MB-231) [%] | normalised response (DU-4475) [%] | normalised response (BT-474) [%] | normalised response (BT-549) [%] | normalised response (MCF-10A) [%] | normalised response (MDA-MB-468) [%] | normalised response (HCC1599) [%] | normalised response (MDA-MB-453) [%]
COc1cc(O)c2c(c1)/C=C/C[C@H](O)[C@H](O)C(=O)/C=C\C[C@H](C)OC2=O [(5Z)-7-Oxozeaenol] (10 nM) | 110 | 104 | 100 | 101 | 116 | 105 | 97.4 | 107 | 114 | 104 | 95.1 | 107 | 105 | 94.7 | 93.8 | 128 | 114 | 77.6
CCCCCOC(=O)Nc1nc(=O)n([C@@H]2O[C@H](C)[C@@H](O)[C@H]2O)cc1F [Capecitabine] (10 nM) | 101 | 101 | 97.4 | 104 | 87.1 | 96.3 | 103 | 89.3 | 85.3 | 79 | 104 | 99 | 100 | 94.2 | 78.4 | 71 | 101 | 100
O=P1(N(CCCl)CCCl)NCCCO1 (stereo not given) [Cyclophosphamide] (40 nM) | 100 | 111 | 99.7 | 102 | 107 | 105 | 101 | 93.5 | 57 | 99.7 | 112 | 97.8 | – | 101 | 96.8 | 103 | 96.9 | 95.9
COc1cccc2c1C(=O)c1c(O)c3c(c(O)c1C2=O)C[C@@](O)(C(C)=O)C[C@@H]3O[C@H]1C[C@H](N)[C@H](O)[C@H](C)O1 [Daunorubicin] (1 nM) | 105 | 53.5 | 97.5 | 103 | 115 | 106 | 102 | 117 | 111 | – | 111 | 99.1 | 103 | 95.7 | 87.1 | 82 | 99.7 | 96.5
Nc1nc2[nH]cc(CCc3ccc(C(=O)N[C@@H](CCC(=O)O)C(=O)O)cc3)c2c(=O)[nH]1 [Pemetrexed] (10 nM) | 86.2 | 119 | 99.3 | 93.4 | 104 | 97.8 | 98.8 | 95.1 | 96.2 | 104 | 96.6 | 95.3 | 101 | 91.7 | – | 63.2 | 104 | 84.1
CC(C)n1cnc2c(NCCc3ccc(O)cc3)nc(-c3csc4ccccc34)nc21 [StemRegenin 1] (10 nM) | 99.4 | 118 | 97.7 | 101 | 60.1 | 107 | 96.5 | 106 | 119 | 94.6 | 122 | 97.3 | – | 106 | 99.9 | 105 | 105 | 101
COc1cc2/c(=N/c3ccc(Br)cc3F)nc[nH]c2cc1OCC1CCN(C)CC1 [Vandetanib] (1 nM) | 91.3 | – | 93.2 | 97.1 | 83.2 | 97.3 | 94.4 | 93.7 | 110 | 79.4 | 91.4 | 91 | 95.3 | 56 | 79 | – | 91.6 | 74.6
